Values quoted from earlier work in patent publication US20050208101A1, “Coating composition for an implantable medical device and method for coating such a device” (priority 2002, published 2005).
At least one compound was matched to its structure with a doubt left.

Tested on: restenosis
Details: rapamycin as stent coating; Cordis SIRIUS study; cited from earlier work

CO[C@H]1C[C@@H]2CC[C@@H](C)[C@@](O)(O2)C(=O)C(=O)N2CCCC[C@H]2C(=O)O[C@H]([C@H](C)C[C@@H]2CC[C@@H](O)[C@H](OC)C2)CC(=O)[C@H](C)/C=C(\C)[C@@H](O)[C@@H](OC)C(=O)[C@H](C)C[C@H](C)/C=C/C=C/C=C/1C [rapamycin]
restenosis: 10%
